PubChem BioAssay AID1508597 – Cure First, 2020

Test: 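Knock-downs altering ovarian cancer cell survival with or without PARP inhibitor rucaparib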 (primary screen)
System: human ovarian carcinoma lines grown from tumours: OCI-P5x (papillary serous) and OCI-C5x (clear cell)
Reagent: siRNA pool against human genes, 1.25 pmol siRNA per well
Duration: 72 h or 96 h, depending on the cell culture
Treatment: rucaparib 20 µM (about IC30) or vehicle, present until read-out
Rucaparib or vehicle: Rucaparib
Cell line: OCI-C5x (clear cell)
Detection: 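ATP luminescence measured at 72 or 96 h according to the culture, then normalised and expressed as percent viability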
Direction: viability, normalised: higher = more viable cells remaining
Rule for the call: 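Active when normalised viability falls below 80 percent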
Calls: active = viability under 80%; inactive = viability 80% or more
This is a random part of the about 2,100 reagents, in one setting of the screen. 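Calls flag viability under 80% in either arm, not effects specific to rucaparib; the reference for percent is not stated.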 Not given: the 100% reference.

gene knocked down | technical replicate | viability, normalised (%) | Call
GCH1 | 1 | 61.7 | active
GCH1 | 2 | 34.5 | active
GCH1 | 3 | 50.7 | active
CAMK2B | 1 | 35.9 | active
CAMK2B | 2 | 39.3 | active
CAMK2B | 3 | 43 | active
SETD4 | 1 | 69.2 | active
SETD4 | 2 | 70 | active
SETD4 | 3 | 69.6 | active
PIP5K1A | 1 | 61 | active
PIP5K1A | 2 | 69.2 | active
PIP5K1A | 3 | 71 | active
ABCC1 | 1 | 50 | active
ABCC1 | 2 | 39.5 | active
ABCC1 | 3 | 52.2 | active
S100A4 | 1 | 48.7 | active
S100A4 | 2 | 45.2 | active
S100A4 | 3 | 41.9 | active
PDK3 | 1 | 30.5 | active
PDK3 | 2 | 49.4 | active
PDK3 | 3 | 69.7 | active
KPNA4 | 1 | 48.2 | active
KPNA4 | 2 | 61.7 | active
KPNA4 | 3 | 66.2 | active
PSENEN | 1 | 44 | active
PSENEN | 2 | 61.2 | active
PSENEN | 3 | 46.7 | active
PHF21A | 1 | 48.4 | active
PHF21A | 2 | 51.4 | active
PHF21A | 3 | 33 | active
L3MBTL2 | 1 | 33.3 | active
L3MBTL2 | 2 | 26.9 | active
L3MBTL2 | 3 | 41.9 | active
ZAR1 | 1 | 84.8 | inactive
ZAR1 | 2 | 55.7 | active
ZAR1 | 3 | 52.8 | active
MYO3A | 1 | 68.8 | active
MYO3A | 2 | 57.7 | active
MYO3A | 3 | 66.6 | active

Ordered by “viability, normalised (%)” (highest first): 2 of the entries above
gene knocked down | technical replicate | viability, normalised (%) | Call
PSENEN | 2 | 61.2 | active
PSENEN | 3 | 46.7 | active
